Test results reported in the supplement of paper PMC10849652.
This is one part of the list.

The chains behind the UniProt entries cited, without tags or fusion partners. Where a name states a change or a piece, a line headed by the entry shows the natural chain unless it says otherwise.
UniProt Q8WUD1: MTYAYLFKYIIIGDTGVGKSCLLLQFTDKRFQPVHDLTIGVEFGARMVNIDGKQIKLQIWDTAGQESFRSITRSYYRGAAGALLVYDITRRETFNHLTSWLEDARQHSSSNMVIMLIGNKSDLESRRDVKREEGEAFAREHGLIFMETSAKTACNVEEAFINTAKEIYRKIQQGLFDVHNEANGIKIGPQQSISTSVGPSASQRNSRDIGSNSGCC
UniProt Q15276: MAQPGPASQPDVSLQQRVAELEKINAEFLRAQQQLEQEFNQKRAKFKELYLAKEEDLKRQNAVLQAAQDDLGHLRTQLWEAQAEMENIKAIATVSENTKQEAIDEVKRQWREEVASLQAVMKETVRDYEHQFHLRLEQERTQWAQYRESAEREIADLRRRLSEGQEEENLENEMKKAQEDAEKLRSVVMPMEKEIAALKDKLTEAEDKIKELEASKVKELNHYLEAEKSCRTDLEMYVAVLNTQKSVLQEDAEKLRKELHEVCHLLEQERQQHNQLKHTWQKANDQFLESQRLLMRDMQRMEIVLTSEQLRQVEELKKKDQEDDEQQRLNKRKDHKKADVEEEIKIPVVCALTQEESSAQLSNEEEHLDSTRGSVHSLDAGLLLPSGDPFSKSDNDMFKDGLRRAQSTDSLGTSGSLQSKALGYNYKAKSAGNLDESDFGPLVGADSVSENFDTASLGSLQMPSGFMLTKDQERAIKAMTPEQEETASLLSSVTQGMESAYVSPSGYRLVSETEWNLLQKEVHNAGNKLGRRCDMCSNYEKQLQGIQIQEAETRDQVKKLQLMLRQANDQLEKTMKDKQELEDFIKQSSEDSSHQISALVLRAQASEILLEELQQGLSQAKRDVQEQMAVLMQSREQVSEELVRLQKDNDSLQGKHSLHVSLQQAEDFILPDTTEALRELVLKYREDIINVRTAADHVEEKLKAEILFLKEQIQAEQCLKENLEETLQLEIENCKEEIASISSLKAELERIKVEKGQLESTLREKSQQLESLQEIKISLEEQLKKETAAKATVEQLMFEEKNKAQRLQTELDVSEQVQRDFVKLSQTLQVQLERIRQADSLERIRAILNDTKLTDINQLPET
UniProt P61225: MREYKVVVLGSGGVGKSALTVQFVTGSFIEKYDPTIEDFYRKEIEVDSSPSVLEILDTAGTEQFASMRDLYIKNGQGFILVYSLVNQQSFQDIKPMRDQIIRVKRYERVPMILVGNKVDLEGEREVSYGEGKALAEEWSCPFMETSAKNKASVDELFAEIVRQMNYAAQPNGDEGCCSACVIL
UniProt Q13637: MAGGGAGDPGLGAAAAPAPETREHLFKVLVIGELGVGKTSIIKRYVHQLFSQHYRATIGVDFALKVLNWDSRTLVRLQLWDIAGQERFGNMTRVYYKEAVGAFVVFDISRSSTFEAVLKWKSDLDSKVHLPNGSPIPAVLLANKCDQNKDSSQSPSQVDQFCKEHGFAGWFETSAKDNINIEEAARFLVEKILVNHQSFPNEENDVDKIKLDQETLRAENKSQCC
UniProt P61006: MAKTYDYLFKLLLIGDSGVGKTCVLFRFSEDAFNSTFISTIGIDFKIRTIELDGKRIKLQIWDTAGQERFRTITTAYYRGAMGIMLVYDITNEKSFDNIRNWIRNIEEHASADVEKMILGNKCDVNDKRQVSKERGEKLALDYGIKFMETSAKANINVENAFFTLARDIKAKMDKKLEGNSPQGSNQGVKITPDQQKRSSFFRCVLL
UniProt P61018: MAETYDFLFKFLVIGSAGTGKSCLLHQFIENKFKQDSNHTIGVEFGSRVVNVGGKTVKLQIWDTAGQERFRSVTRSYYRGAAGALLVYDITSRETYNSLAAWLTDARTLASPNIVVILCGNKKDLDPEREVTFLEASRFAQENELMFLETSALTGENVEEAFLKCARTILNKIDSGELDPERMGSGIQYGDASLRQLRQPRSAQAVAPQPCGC
UniProt Q9ULC3: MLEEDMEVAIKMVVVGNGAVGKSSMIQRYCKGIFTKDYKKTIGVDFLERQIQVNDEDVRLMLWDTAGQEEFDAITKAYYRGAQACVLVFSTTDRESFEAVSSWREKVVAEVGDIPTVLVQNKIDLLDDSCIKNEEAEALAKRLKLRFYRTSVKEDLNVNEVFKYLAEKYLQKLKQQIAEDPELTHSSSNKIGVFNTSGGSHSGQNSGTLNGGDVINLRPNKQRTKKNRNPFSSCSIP
UniProt P53611: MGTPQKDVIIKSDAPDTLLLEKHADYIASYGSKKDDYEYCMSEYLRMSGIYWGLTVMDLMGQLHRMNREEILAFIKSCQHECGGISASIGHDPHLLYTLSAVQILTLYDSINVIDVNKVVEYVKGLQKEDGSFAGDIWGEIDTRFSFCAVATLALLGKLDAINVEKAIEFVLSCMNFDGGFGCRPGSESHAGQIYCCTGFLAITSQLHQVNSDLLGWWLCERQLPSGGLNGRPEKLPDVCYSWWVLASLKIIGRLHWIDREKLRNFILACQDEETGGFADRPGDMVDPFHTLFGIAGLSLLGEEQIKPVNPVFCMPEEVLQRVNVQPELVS
UniProt P54725: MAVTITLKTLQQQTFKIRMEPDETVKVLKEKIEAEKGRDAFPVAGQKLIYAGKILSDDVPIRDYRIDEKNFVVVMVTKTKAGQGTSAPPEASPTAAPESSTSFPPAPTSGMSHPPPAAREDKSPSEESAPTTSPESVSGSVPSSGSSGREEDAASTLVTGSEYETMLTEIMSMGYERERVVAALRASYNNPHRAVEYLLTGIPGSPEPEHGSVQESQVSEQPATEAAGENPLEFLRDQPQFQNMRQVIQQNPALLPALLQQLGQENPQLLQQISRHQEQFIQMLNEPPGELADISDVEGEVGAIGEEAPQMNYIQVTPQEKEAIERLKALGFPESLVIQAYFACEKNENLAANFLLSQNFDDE
UniProt P61026: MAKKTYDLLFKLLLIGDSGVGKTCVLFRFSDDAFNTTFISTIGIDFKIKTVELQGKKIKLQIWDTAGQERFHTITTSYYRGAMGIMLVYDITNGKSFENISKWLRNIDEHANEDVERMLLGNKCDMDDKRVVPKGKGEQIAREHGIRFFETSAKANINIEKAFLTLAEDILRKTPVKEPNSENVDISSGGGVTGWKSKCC
UniProt Q9Y3P9: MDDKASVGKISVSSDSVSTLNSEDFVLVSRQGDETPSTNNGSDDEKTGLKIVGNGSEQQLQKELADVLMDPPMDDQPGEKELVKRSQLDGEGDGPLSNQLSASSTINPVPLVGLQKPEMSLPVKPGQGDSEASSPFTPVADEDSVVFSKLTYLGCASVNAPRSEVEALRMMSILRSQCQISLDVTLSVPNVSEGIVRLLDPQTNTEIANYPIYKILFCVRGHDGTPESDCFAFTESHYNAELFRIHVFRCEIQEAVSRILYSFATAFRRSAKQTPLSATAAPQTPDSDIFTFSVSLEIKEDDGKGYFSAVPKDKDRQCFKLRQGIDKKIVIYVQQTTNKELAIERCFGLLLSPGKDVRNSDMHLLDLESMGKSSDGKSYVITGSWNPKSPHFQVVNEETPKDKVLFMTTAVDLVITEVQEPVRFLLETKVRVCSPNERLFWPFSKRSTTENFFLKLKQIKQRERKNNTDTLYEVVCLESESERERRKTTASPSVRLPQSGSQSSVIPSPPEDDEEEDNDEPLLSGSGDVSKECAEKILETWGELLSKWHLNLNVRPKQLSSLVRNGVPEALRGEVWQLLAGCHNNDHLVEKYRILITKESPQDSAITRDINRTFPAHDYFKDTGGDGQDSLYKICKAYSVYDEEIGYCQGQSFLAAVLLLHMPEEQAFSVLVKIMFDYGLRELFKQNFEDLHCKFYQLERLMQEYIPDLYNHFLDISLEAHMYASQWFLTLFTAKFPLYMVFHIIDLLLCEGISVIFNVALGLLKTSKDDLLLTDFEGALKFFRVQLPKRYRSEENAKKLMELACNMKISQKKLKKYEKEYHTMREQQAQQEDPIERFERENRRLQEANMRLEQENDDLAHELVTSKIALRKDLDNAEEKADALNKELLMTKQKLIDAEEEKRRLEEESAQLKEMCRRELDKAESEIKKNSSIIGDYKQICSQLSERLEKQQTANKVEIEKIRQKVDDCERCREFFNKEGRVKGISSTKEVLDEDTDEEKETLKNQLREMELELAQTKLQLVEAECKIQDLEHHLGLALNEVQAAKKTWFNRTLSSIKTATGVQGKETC
UniProt P20336: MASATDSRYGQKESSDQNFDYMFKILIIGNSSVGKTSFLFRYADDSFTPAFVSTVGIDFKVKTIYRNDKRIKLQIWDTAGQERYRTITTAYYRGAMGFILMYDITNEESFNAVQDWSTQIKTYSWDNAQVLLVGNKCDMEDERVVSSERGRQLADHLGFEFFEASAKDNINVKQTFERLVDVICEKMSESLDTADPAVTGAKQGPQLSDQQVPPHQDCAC
UniProt P20339: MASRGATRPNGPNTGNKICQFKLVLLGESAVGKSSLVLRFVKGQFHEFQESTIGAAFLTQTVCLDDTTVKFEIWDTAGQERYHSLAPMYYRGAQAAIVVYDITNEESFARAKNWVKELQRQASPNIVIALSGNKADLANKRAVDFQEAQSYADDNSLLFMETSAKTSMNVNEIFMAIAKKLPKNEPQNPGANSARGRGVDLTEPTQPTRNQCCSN
UniProt O60671: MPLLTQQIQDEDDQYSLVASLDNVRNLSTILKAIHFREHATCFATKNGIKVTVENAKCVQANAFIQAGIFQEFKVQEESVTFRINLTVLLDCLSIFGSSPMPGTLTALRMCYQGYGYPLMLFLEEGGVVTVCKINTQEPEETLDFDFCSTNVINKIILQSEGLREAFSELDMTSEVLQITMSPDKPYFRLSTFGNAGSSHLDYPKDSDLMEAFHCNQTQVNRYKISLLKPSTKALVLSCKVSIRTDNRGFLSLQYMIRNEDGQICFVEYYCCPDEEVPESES
UniProt Q3YEC7: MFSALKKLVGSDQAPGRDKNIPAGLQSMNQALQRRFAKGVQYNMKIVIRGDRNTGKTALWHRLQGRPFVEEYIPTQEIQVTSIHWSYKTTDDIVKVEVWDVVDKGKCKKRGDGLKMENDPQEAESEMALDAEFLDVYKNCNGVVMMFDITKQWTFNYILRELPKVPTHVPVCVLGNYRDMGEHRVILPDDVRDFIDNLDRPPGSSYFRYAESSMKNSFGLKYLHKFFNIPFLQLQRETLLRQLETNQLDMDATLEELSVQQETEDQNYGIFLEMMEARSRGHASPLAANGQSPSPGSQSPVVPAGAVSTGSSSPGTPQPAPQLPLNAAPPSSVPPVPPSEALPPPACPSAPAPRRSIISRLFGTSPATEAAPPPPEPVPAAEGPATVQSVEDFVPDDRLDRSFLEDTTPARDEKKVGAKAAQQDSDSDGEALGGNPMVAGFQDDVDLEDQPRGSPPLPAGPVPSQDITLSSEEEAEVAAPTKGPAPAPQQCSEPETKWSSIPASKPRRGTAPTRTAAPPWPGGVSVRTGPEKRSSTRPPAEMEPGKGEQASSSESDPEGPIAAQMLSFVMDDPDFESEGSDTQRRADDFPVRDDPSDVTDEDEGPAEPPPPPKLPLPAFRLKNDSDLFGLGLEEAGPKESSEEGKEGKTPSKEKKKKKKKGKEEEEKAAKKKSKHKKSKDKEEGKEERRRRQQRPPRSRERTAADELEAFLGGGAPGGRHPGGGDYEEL
UniProt P51159: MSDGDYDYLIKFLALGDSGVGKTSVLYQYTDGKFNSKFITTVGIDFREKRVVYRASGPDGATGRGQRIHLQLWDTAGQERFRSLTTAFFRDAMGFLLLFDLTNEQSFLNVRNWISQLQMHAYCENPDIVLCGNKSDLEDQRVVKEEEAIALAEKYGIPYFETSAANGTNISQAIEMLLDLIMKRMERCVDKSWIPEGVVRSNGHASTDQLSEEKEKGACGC

How the values were obtained:
Experiment in all cases: log2 fold change, soluble protein after heating vs DMSO (PISA); higher = thermal stabilisation; K562 cells, 10 uM, 30 min; active = over 0.2 and 3.5 SD of the protein, either way, in both replicates (recomputed)
[1] = compound: CS(=O)(=O)c1ccc(-c2cnc(N)c(C(=O)Nc3ccccc3)n2)cc1
In short: (§1)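 Values are thermal stability changes relative to control samples and are taken from duplicates. They are stated as log2 fold changes. Before quantification by TMTpro 16plex LC-MS/MS with equalised channel sums, K562 cells at 2×10^6 cells/mL were treated with 10 μM compound for 30 min, heated in aliquots for 3 min across 48°C-58°C, pooled, extracted in PBS with 0.5% NP-40 at 4°C, and centrifuged at 21,000xg for 90 min to give the soluble supernatant.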

crizotinib = compound: C[C@@H](Oc1cc(-c2cnn(C3CCNCC3)c2)cnc1N)c1c(Cl)ccc(F)c1Cl [crizotinib]
In short: as §1

[2] = compound: C[C@@H]1COCCN1C2=NC(=NC(=C2)C3(CC3)S(=O)(=O)C)C4=C5C=CNC5=CC=C4
In short: as §1

[3] = compound: C[C@H](C1=CC=C(C=C1)C(=O)NC2=C3C=CNC3=NC=C2)N
In short: as §1

duvelisib = compound: C[C@H](Nc1ncnc2nc[nH]c12)c1cc2cccc(Cl)c2c(=O)n1-c1ccccc1 [duvelisib]
In short: as §1

gandotinib = compound: Cc1cc(Nc2cc(CN3CCOCC3)c3nc(C)c(Cc4ccc(Cl)cc4F)n3n2)n[nH]1 [gandotinib]
In short: as §1

tozasertib = compound: Cc1cc(Nc2cc(N3CCN(C)CC3)nc(Sc3ccc(NC(=O)C4CC4)cc3)n2)n[nH]1 [tozasertib]
In short: as §1

[4] = compound: Cc1cc(SCc2sc(-c3ccc(C(F)(F)F)cc3)nc2C)ccc1OCC(=O)O
In short: as §1

doramapimod = compound: Cc1ccc(-n2nc(C(C)(C)C)cc2NC(=O)Nc2ccc(OCCN3CCOCC3)c3ccccc23)cc1 [doramapimod]
In short: as §1

ispinesib = compound: Cc1ccc(C(=O)N(CCCN)[C@@H](c2nc3cc(Cl)ccc3c(=O)n2Cc2ccccc2)C(C)C)cc1 [ispinesib]
In short: as §1

bafetinib = compound: Cc1ccc(NC(=O)c2ccc(CN3CC[C@H](N(C)C)C3)c(C(F)(F)F)c2)cc1Nc1nccc(-c2cncnc2)n1 [bafetinib]
In short: as §1

[5] = compound: Cc1cccc(CC(=O)N2CCc3c2ccc(-c2cn(C)c4ncnc(N)c24)c3F)n1
In short: as §1

nilotinib = compound: Cc1cn(-c2cc(NC(=O)c3ccc(C)c(Nc4nccc(-c5cccnc5)n4)c3)cc(C(F)(F)F)c2)cn1 [nilotinib]
In short: as §1

[6] = compound: Cc1nc(Nc2n[nH]c3c2CN(C(=O)N[C@H](CN(C)C)c2ccccc2)C3(C)C)c2sccc2n1
In short: as §1

dasatinib = compound: Cc1nc(Nc2ncc(C(=O)Nc3c(C)cccc3Cl)s2)cc(N2CCN(CCO)CC2)n1 [dasatinib]
In short: as §1

[7] = compound: Cc1ncc(-c2ccnc(Nc3ccc(S(C)(=O)=O)cc3)n2)n1C(C)C
In short: as §1

[8] = compound: Cn1cc(-c2ccc3c(c2)CCN3C(=O)Cc2cccc(C(F)(F)F)c2)c2c(N)ncnc21
In short: as §1

[9] = compound: Cn1cc(-c2ccc3nnc(C(F)(F)c4ccc5ncccc5c4)n3n2)cn1
In short: as §1

tipifarnib = compound: Cn1cncc1[C@@](N)(c1ccc(Cl)cc1)c1ccc2c(c1)c(-c1cccc(Cl)c1)cc(=O)n2C [tipifarnib]
In short: as §1

mubritinib = compound: FC(F)(F)c1ccc(/C=C/c2nc(COc3ccc(CCCCn4ccnn4)cc3)co2)cc1 [mubritinib]
In short: as §1

Measured: log2 fold change

RAB2B (UniProt Q8WUD1)
inactive: [1] -0.024 | crizotinib -0.02 | [2] 0.006 | [3] -0.08 | duvelisib -0.035 | gandotinib -0.068 | tozasertib 0.013 | [4] 0.004 | doramapimod -0.009 | ispinesib -0.013 | bafetinib -0.019 | [5] 0.06 | nilotinib 0.063 | [6] -0.018 | dasatinib 0.026 | [7] 0.02 | [8] 0.016 | [9] -0.036 | tipifarnib -0.018 | mubritinib 0.012

RABEP1 (UniProt Q15276)
inactive: [1] 0.046 | crizotinib 0.044 | [2] 0.016 | [3] -0.002 | duvelisib 0.032 | gandotinib 0.002 | tozasertib 0.034 | [4] -0.01 | doramapimod -0.012 | ispinesib -0.014 | bafetinib -0.097 | [5] -0.028 | nilotinib 0.004 | [6] -0.015 | dasatinib 0.003 | [7] 0.025 | [8] 0.026 | [9] 0.017 | tipifarnib -0.042 | mubritinib 0.049

RAP2B (UniProt P61225)
inactive: [1] -0.027 | crizotinib 0.078 | [2] 0.047 | [3] -0.12 | duvelisib 0.052 | gandotinib -0.031 | tozasertib -0.066 | [4] -0.077 | doramapimod -0.021 | ispinesib 0.067 | bafetinib 0.058 | [5] -0.015 | nilotinib 0.111 | [6] -0.026 | dasatinib 0.021 | [7] 0.005 | [8] 0.022 | [9] 0.018 | tipifarnib 0.003 | mubritinib 0.057

RAB32 (UniProt Q13637)
inactive: [1] -0.02 | crizotinib 0.11 | [2] 0.017 | [3] -0.058 | duvelisib -0.039 | gandotinib -0.017 | tozasertib -0.041 | [4] 0.028 | doramapimod 0.019 | ispinesib 0.047 | bafetinib 0.096 | [5] 0.023 | nilotinib -0.088 | [6] -0.059 | dasatinib 0.106 | [7] -0.034 | [8] 0.07 | [9] 0.017 | tipifarnib -0.11 | mubritinib 0.081

RAB8A (UniProt P61006)
inactive: [1] 0.018 | crizotinib 0.129 | [2] -0.012 | [3] 0.032 | duvelisib 0.03 | gandotinib 0.013 | tozasertib -0.013 | [4] -0.018 | doramapimod -0.051 | ispinesib -0.158 | bafetinib -0.043 | [5] -0.058 | nilotinib 0.037 | [6] -0.011 | dasatinib 0.018 | [7] 0.026 | [8] 0.05 | [9] 0.12 | tipifarnib -0.043 | mubritinib 0.014

RAB4B isoform 2 (UniProt P61018)
inactive: [1] 0.008 | crizotinib 0.111 | [2] 0.076 | [3] -0.028 | duvelisib 0.086 | gandotinib -0.017 | tozasertib -0.039 | [4] -0.02 | doramapimod 0.014 | ispinesib -0.005 | bafetinib -0.058 | [5] -0.046 | nilotinib -0.004 | [6] 0.028 | dasatinib 0.031 | [7] -0.016 | [8] 0.059 | [9] 0.01 | tipifarnib -0.009 | mubritinib 0.024

RAB23 (UniProt Q9ULC3)
inactive: [1] 0.025 | crizotinib 0.135 | [2] 0.088 | [3] -0.033 | duvelisib 0.037 | gandotinib -0.031 | tozasertib -0.07 | [4] -0.031 | doramapimod -0.029 | ispinesib 0.134 | bafetinib -0.022 | [5] 0.016 | nilotinib -0.018 | [6] 0.017 | dasatinib 0 | [7] 0.014 | [8] 0.056 | [9] 0.024 | tipifarnib 0.063 | mubritinib 0.023

RABGGTB (UniProt P53611)
inactive: [1] 0.004 | crizotinib -0.012 | [2] 0.085 | [3] -0.04 | duvelisib 0.064 | gandotinib -0.047 | tozasertib 0.002 | [4] 0.007 | doramapimod 0.063 | ispinesib -0.073 | bafetinib 0.028 | [5] 0.023 | nilotinib 0.053 | [6] -0.05 | dasatinib 0.063 | [7] -0.032 | [8] 0.034 | [9] -0.02 | tipifarnib 0.074 | mubritinib -0.004

RAD23A (UniProt P54725)
inactive: [1] -0.009 | crizotinib 0.061 | [2] 0.004 | [3] -0.036 | duvelisib -0.017 | gandotinib -0.103 | tozasertib -0.009 | [4] -0.107 | doramapimod -0.038 | ispinesib 0.022 | bafetinib -0.061 | [5] -0.111 | nilotinib -0.029 | [6] 0.014 | dasatinib 0.042 | [7] 0.012 | [8] 0.104 | [9] 0.004 | tipifarnib 0.021 | mubritinib 0.027

RAB10 (UniProt P61026)
inactive: [1] 0.029 | crizotinib 0.086 | [2] 0.031 | [3] -0.094 | duvelisib 0.045 | gandotinib -0.074 | tozasertib 0.023 | [4] -0.093 | doramapimod -0.034 | ispinesib 0.038 | bafetinib -0.036 | [5] -0.033 | nilotinib 0.006 | [6] 0 | dasatinib 0.028 | [7] -0.001 | [8] 0.005 | [9] 0.015 | tipifarnib 0.004 | mubritinib 0.02

RABGAP1 (UniProt Q9Y3P9)
inactive: [1] -0.02 | crizotinib -0.036 | [2] 0.069 | [3] 0.016 | duvelisib -0.008 | gandotinib -0.025 | tozasertib 0.023 | [4] 0.011 | doramapimod 0.051 | ispinesib -0.086 | bafetinib -0.036 | [5] 0.036 | nilotinib -0.017 | [6] -0.056 | dasatinib -0.027 | [7] 0.006 | [8] -0.006 | [9] -0.003 | tipifarnib 0.01 | mubritinib 0.018

RAB3A (UniProt P20336)
inactive: [1] -0.082 | crizotinib 0.093 | [2] -0.064 | [3] -0.079 | duvelisib 0.111 | gandotinib -0.257 | tozasertib 0.057 | [4] -0.096 | doramapimod -0.227 | ispinesib 0.054 | bafetinib -0.091 | [5] -0.072 | nilotinib 0.079 | [6] 0.045 | dasatinib 0.039 | [7] 0.017 | [8] 0.009 | [9] -0.028 | tipifarnib -0.02 | mubritinib 0.012

Four consecutive entries out of the list so far:
RAB4B isoform 2 (UniProt P61018)
inactive: [1] 0.008 | crizotinib 0.111 | [2] 0.076 | [3] -0.028 | duvelisib 0.086 | gandotinib -0.017 | tozasertib -0.039 | [4] -0.02 | doramapimod 0.014 | ispinesib -0.005 | bafetinib -0.058 | [5] -0.046 | nilotinib -0.004 | [6] 0.028 | dasatinib 0.031 | [7] -0.016 | [8] 0.059 | [9] 0.01 | tipifarnib -0.009 | mubritinib 0.024

RAB23 (UniProt Q9ULC3)
inactive: [1] 0.025 | crizotinib 0.135 | [2] 0.088 | [3] -0.033 | duvelisib 0.037 | gandotinib -0.031 | tozasertib -0.07 | [4] -0.031 | doramapimod -0.029 | ispinesib 0.134 | bafetinib -0.022 | [5] 0.016 | nilotinib -0.018 | [6] 0.017 | dasatinib 0 | [7] 0.014 | [8] 0.056 | [9] 0.024 | tipifarnib 0.063 | mubritinib 0.023

RABGGTB (UniProt P53611)
inactive: [1] 0.004 | crizotinib -0.012 | [2] 0.085 | [3] -0.04 | duvelisib 0.064 | gandotinib -0.047 | tozasertib 0.002 | [4] 0.007 | doramapimod 0.063 | ispinesib -0.073 | bafetinib 0.028 | [5] 0.023 | nilotinib 0.053 | [6] -0.05 | dasatinib 0.063 | [7] -0.032 | [8] 0.034 | [9] -0.02 | tipifarnib 0.074 | mubritinib -0.004

RAD23A (UniProt P54725)
inactive: [1] -0.009 | crizotinib 0.061 | [2] 0.004 | [3] -0.036 | duvelisib -0.017 | gandotinib -0.103 | tozasertib -0.009 | [4] -0.107 | doramapimod -0.038 | ispinesib 0.022 | bafetinib -0.061 | [5] -0.111 | nilotinib -0.029 | [6] 0.014 | dasatinib 0.042 | [7] 0.012 | [8] 0.104 | [9] 0.004 | tipifarnib 0.021 | mubritinib 0.027

Further records.

RAB5A (UniProt P20339)
inactive: [1] 0.034 | crizotinib 0.055 | [2] 0.034 | [3] -0.098 | duvelisib 0.009 | gandotinib -0.055 | tozasertib 0.017 | [4] -0.075 | doramapimod 0.008 | ispinesib 0.024 | bafetinib 0.007 | [5] 0.06 | nilotinib 0.04 | [6] -0.002 | dasatinib 0.09 | [7] 0.011 | [8] 0.05 | [9] 0.008 | tipifarnib 0 | mubritinib -0.012

RAD1 (UniProt O60671)
inactive: [1] -0.004 | crizotinib 0.046 | [2] -0.066 | [3] -0.059 | duvelisib 0 | gandotinib -0.001 | tozasertib -0.028 | [4] -0.039 | doramapimod -0.006 | ispinesib 0.023 | bafetinib -0.015 | [5] -0.024 | nilotinib -0.066 | [6] -0.086 | dasatinib 0.021 | [7] 0.009 | [8] 0.007 | [9] 0.051 | tipifarnib -0.017 | mubritinib 0.059

RABL6 (UniProt Q3YEC7)
inactive: [1] 0.007 | crizotinib 0.02 | [2] -0.031 | [3] -0.049 | duvelisib 0.038 | gandotinib 0.056 | tozasertib -0.012 | [4] -0.023 | doramapimod -0.023 | ispinesib -0.019 | bafetinib -0.025 | [5] -0.05 | nilotinib -0.018 | [6] 0.015 | dasatinib 0.015 | [7] 0 | [8] 0.036 | [9] 0.053 | tipifarnib -0.015 | mubritinib 0.024

RAB27A (UniProt P51159)
inactive: [1] 0.056 | crizotinib 0.069 | [2] 0.016 | [3] -0.052 | duvelisib 0.03 | gandotinib -0.034 | tozasertib -0.007 | [4] -0.016 | doramapimod -0.027 | ispinesib 0.064 | bafetinib -0.052 | [5] 0.005 | nilotinib -0.012 | [6] 0.018 | dasatinib 0.002 | [7] 0.013 | [8] 0.012 | [9] 0.023 | tipifarnib 0.031 | mubritinib 0.002
